By UniProt entry, the sequences of proteins in these tests, tags left out.
UniProt P53350, whole entry, looked up: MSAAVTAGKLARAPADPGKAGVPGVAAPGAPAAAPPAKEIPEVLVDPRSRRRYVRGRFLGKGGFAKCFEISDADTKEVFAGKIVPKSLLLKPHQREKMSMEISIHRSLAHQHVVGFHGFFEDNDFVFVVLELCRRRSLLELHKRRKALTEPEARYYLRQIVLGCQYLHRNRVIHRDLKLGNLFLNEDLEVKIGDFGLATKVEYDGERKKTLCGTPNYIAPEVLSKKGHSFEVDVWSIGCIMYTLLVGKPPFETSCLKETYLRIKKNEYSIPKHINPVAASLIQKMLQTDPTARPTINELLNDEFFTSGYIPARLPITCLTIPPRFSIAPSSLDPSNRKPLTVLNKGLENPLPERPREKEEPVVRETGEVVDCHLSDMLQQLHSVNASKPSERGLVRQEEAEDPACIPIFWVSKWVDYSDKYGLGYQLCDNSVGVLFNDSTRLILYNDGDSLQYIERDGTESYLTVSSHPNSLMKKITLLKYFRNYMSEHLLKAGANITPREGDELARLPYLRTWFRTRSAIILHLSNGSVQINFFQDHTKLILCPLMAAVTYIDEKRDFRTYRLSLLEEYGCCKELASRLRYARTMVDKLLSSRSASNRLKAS

In all, about 360,000 compounds went through this assay and about 10,000 (2.8%) were called active. This list was built around the results that the source calls inconclusive (neither active nor inactive); the mix of calls is not that of the screen. Calls follow the shape of the dose curve; as a rule, active = well fitted inhibition curve with a large enough effect; inconclusive = small, poorly fitted or top-dose-only effect; inactive = flat fitted curve, though single readings scatter. Where the call is inconclusive, the potency comes from a doubtful curve fit. Where a SMILES comes first, the peptide text is derived from it. [ ]: non-standard residue; d: D form. The star is where a group is joined. ξ: configuration not given here. Cbz = O=C(OCc1ccccc1)*; ξS = NC(CO)C(=O)O
The compounds below were run against Serine/threonine-protein kinase PLK1 (Homo sapiens) (UniProt P53350) (assay: qHTS for Inhibitors of PLK1-PDB (polo-like kinase 1 - polo-box domain): Primary Screen). Settings: Plk1 PBD binding of FITC phosphopeptide, fluorescence polarization.
For O=C(COc1ccc(Cl)cc1)NCCCNC(=O)c1ccccn1, the max response, negative = inhibition was inactive: -7.2%.
Cc1ccc(C(=O)NS(=O)(=O)c2ccccc2)cc1 was tested, and the Potency was inconclusive: 11.9 µM [inhibitor, partial curve].
Cc1ccccc1S(=O)(=O)Cc1ccc(C(=O)NCCCN2CCCC2)o1 was tested, and the max response, negative = inhibition was inconclusive: -32.5% [inhibitor].
CCN(CC)S(=O)(=O)c1ccc2c(c1)nc(CCC(=O)O)n2C was tested, and the Potency was inconclusive: 16.8 µM [inhibitor, partial curve].
For CCOC(=O)CNC(=O)C(CO)NC(=O)OCc1ccccc1 (stereo unspecified) (Cbz-[ξS]-Gly-OEt), the Potency was inconclusive: 21.2 µM [inhibitor, partial curve].
For Cc1ccc(-n2nc(-c3cccnc3)cc2C(=O)N2CCOCC2)c(C)c1, the Potency was inconclusive: 26.7 µM [inhibitor, single point].
In the case of CCc1cc(N2CCOCC2)cc2c1[nH]c1ccccc12, the Potency is reported as active: 23.8 µM.
In the case of COc1cc(NC(=O)CSc2nccc(C)n2)c(C)cc1[N+](=O)[O-], the Potency is reported as inconclusive: 21.2 µM [inhibitor, single point].
CC1CC1C(=O)OCC(=O)Nc1ncc(Cl)cc1Cl (stereo unspecified) was tested, and the Potency was inconclusive: 33.6 µM [inhibitor, single point].
In the case of Cc1cc(=O)nc2c3ccccc3n(C(C)C(=O)NCCC(C)C)n12 (stereo unspecified), the Potency is reported as active: 26.7 µM.
With O=c1c2ccccc2nnn1CSc1nnc(-c2cccs2)n1Cc1ccccc1 the Potency was active: 29.9 µM.
In the case of COC(=O)c1sc(-c2ccc(C(C)(C)C)cc2)cc1NC(=O)CSCC(=O)O, the Potency is reported as inconclusive: 26.7 µM [inhibitor, single point].
With CC(=O)CSc1ncnc2sc3c(c12)CCCC3 the max response, negative = inhibition was inactive: 6.15%.
O=C(NNc1ccccc1)c1ccc(Cl)c(Cl)c1 was tested, and the max response, negative = inhibition was inactive: -4.37%.
With CN(C)c1ccc(C(=S)N2CCOCC2)cc1Br the Potency was inconclusive: 26.7 µM [inhibitor, partial curve].
O=C1NC[C@H](CCCCN2C[C@H](Cc3ccc(O)cc3)N(CC3CCCCC3)C(=O)C2=O)N(Cc2ccccc2)C1=O was tested, and the max response, negative = inhibition was inactive: -11.2%.
CCc1ccc(C(=O)CSc2ncn[nH]2)cc1 was tested, and the Potency was inconclusive: 21.2 µM [inhibitor, partial curve].
With CCOCCn1c(=O)c2c(nc3n2CCN3c2ccc(CC)cc2)n(C)c1=O the max response, negative = inhibition was inactive: -10.1%.
For c1ccc(Cc2nnc3sc(-c4ccco4)nn23)cc1, the Potency was active: 21.2 µM.
In the case of CCOc1cc(/C=C2\N=C(SC)SC2=O)cc([N+](=O)[O-])c1OC(C)=O, the Potency is reported as inconclusive: 29.9 µM [inhibitor, single point].
With O=C1CC(/C=C/c2ccccn2)=Nc2ccccc2N1 the Potency was inconclusive: 29.9 µM [inhibitor, partial curve].
With CS(=O)(=O)N1CC2CCCN2c2ccc(C(F)(F)F)cc21 (stereo unspecified) the Potency was inconclusive: 23.8 µM [inhibitor, partial curve].
With Cc1nc2nc(CNC(=O)OC(C)(C)C)nn2c(C)c1CCC(=O)Nc1ccc2c(c1)OCO2 the Potency was inconclusive: 5.32 µM [inhibitor, single point].
For CSc1ccccc1C(=O)Nc1cccc(C(C)=O)c1, the Potency was active: 23.8 µM.
COc1cccc(NC(=O)C2CCN(S(=O)(=O)c3ccc4c(c3)NC(=O)CO4)CC2)c1 was tested, and the Potency was active: 21.2 µM.
In the case of CN1[C@@H](COCc2ccccc2)C=CS1(=O)=O, the max response, negative = inhibition is reported as inactive: -3.9%.
With Cc1c(Cl)c([N+](=O)[O-])nn1CCCC(=O)Nc1sc2c(c1C#N)CCC2 the Potency was active: 29.9 µM.
For CCc1ccc2c(COC(=O)CNS(=O)(=O)c3ccc(NC(C)=O)cc3)cc(=O)oc2c1, the Potency was inconclusive: 16.8 µM [inhibitor, partial curve].
For Cc1[nH]c(=S)[nH]c(=O)c1Cc1c(O)ccc2ccccc12, the Potency was inconclusive: 16.8 µM [inhibitor, partial curve].
CCOC(=O)C1=NNC(C(=O)c2ccc(C)cc2)C1c1ccc(C)cc1 (stereo unspecified) was tested, and the Potency was inconclusive: 29.9 µM [inhibitor, partial curve].
With CC(C)N(C(=S)NCc1ccccc1)C(C)C the Potency was inconclusive: 26.7 µM [inhibitor, partial curve].
With Cc1nn(C)c(C(=O)Sc2ccccc2)c1[N+](=O)[O-] the Potency was inconclusive: 21.2 µM [inhibitor, partial curve].
For N#CCCn1c(=S)[nH]c2ccccc21, the Potency was inconclusive: 21.2 µM [inhibitor, partial curve].
In the case of O=C(c1ccco1)N1CCN(Cc2nc3cc(Cl)ccc3c(=O)[nH]2)CC1, the max response, negative = inhibition is reported as inactive: 1.83%.
For Cc1ccc(-n2c(COc3ccccc3)n[nH]c2=S)cc1, the max response, negative = inhibition was inactive: -20.3%.
With N#CC1(C#N)OC12CCS(=O)(=O)c1ccccc12 (stereo unspecified) the Potency was inconclusive: 13.4 µM [inhibitor, partial curve].
In the case of Cc1csc(N2C(=O)C3C4CCC(O4)C3C2=O)n1 (stereo unspecified), the max response, negative = inhibition is reported as inactive: -4.98%.
In the case of CCCCC(=O)/C=C/n1c(=S)oc2ccccc21, the Potency is reported as inconclusive: 23.8 µM [inhibitor, partial curve].
In the case of O=C(CSc1ccccc1)Nc1nnc(COc2ccc(Cl)cc2)s1, the Potency is reported as active: 2.67 µM.
Cc1ccc(NS(=O)(=O)c2ccc(C)c(NC(=O)COc3ccc4ccccc4c3)c2)c(C)c1 was tested, and the Potency was inconclusive: 59.7 µM [inhibitor, partial curve].
For COc1ccc(/C=N/NC(=O)/C(=C/c2ccccc2)CCO)cc1, the Potency was active: 26.7 µM.
Cc1ccc(C)c(N2CCN(C3CCCCC3NS(=O)(=O)c3ccccc3)CC2)c1 (stereo unspecified) was tested, and the Potency was inconclusive: 26.7 µM [inhibitor, single point].
In the case of N#CC1=C(SCC(N)=O)NC2=C(C(=O)c3ccccc32)C1c1ccc(Cl)cc1 (stereo unspecified), the Potency is reported as inconclusive: 26.7 µM [inhibitor, single point].
In the case of CCCCC1(CO)C(=O)N(c2ccccc2)N(c2ccccc2)C1=O, the max response, negative = inhibition is reported as inactive: -16.5%.
For O=C(CN1C(=O)NC2(CCCC2)C1=O)OCc1cc(=O)n2cc(Br)ccc2n1, the Potency was inconclusive: 33.6 µM [inhibitor, single point].
COc1ccc(-c2c3c(=O)n(C)c(=O)n(C)c3cn2-c2ccccc2O)cc1 was tested, and the Potency was inconclusive: 4.23 µM [inhibitor, full curve].
% is scaled to controls: 0 for no effect and ±100 for the full control effect; potency is read from the fitted curve at half-maximal effect.
Also: nearly all actives have a fitted effect of over 65% in size.
For max response, negative = inhibition in this document: series mostly up to about 57 µM.
